This is an account of results in PubChem BioAssay AID330 (DTP/NCI, 2004).

The experiment concerns P388 leukemia ip, CD2F1 mice, survival T/C. Kind of experiment: NCI In Vivo Anticancer Drug Screen. Data for tumor model P388 Leukemia (intraperitoneal) in CD2F1 (CDF1) mice. The settings on record: T/C endpoint: median survival time, higher T/C = longer survival.
Where [1] appears, read: dose: 200.0 mg/kg/injection, schedule: Q01DX009 (ip), vehicle: Klucel (hydroxypropylcellulose) (HPC).
The mark [2] stands for this setting: dose: 100.0 mg/kg/injection, schedule: Q01DX009 (ip), vehicle: saline.
Where [3] appears, read: dose: 200.0 mg/kg/injection, schedule: Q01DX005 (ip), vehicle: saline.
Setting [4] is: dose: 4.0 mg/kg/injection, schedule: Q01DX009 (ip), vehicle: saline.
The mark [5] stands for this setting: dose: 8.0 mg/kg/injection, schedule: Q01DX009 (ip), vehicle: saline.
Setting [6] is: dose: 50.0 mg/kg/injection, schedule: Q01DX005 (ip), vehicle: saline.
Where [7] appears, read: dose: 100.0 mg/kg/injection, schedule: Q01DX005 (ip), vehicle: saline.
[8] abbreviates: dose: 240.0 mg/kg/injection, schedule: Q01DX005 (ip), vehicle: saline.

The list does not hold the whole screen: it is rich in T/C values a quarter to a half above the control, in often repeated tests (any T/C) and in doses without a T/C. Further doses and runs are listed elsewhere. T/C: endpoint of the treated group in % of that of the vehicle group. Some doses have a count of surviving animals in place of a T/C: the source files T/C as zero there, which appears to mark a toxic dose or a test without result, not a measured value. Some doses without a T/C left all or most animals alive at the check, yet need not have been tolerated: the source hardly ever lists a survival T/C far under the control, and the zero likely stands for such cases as well. Counts of survivors are from the toxicity check (mostly the fifth day) where no day follows; animals may have died later. Schedule codes are those of the source, taken here to give the interval after Q, in days (D) or hours (H), and the number of doses after X. Where survival is the endpoint, the PubChem record calls one and a half times the control and up active, and a quarter to a half above the control has no call in these data; cut-offs in other NCI protocols can differ. Some entries hold several experiments; the results are listed from low to high.

For `COc1cc(C2OC(=O)c3ccccc3S2)ccc1O` (configuration not stated), the T/C is, setting by setting: (dose: 6.25 mg/kg/injection, schedule: Q01DX009 (ip), vehicle: Klucel (hydroxypropylcellulose) (HPC)) 133 % of control; (dose: 25.0 mg/kg/injection, schedule: Q01DX009 (ip), vehicle: Klucel (hydroxypropylcellulose) (HPC)) 128 % of control. The survivor count reads like this: (dose: 50.0 mg/kg/injection, schedule: Q01DX009 (ip), vehicle: Klucel (hydroxypropylcellulose) (HPC)) 6 of 6; under setting [1], 1 of 6.

Take `CC(NCCCSc1ccccc1)C(O)c1ccc(O)cc1` (configuration not stated): the survivor count (dose: 100.0 mg/kg/injection, schedule: Q01DX009 (ip), vehicle: saline with Tween-80) was 3 of 6 and the survivor count (dose: 200.0 mg/kg/injection, schedule: Q01DX009 (ip), vehicle: saline with Tween-80) was 0 of 6.

Regarding `Cc1cnc(N)c(S(=O)(=O)O)c1`, the survivor count under setting [2] was 6 of 6 and the survivor count (dose: 200.0 mg/kg/injection, schedule: Q01DX009 (ip), vehicle: saline) was 5 of 6.

Regarding `CN1CCN(C(=O)Nc2ccc(N=Nc3ccccc3)cc2)CC1`, the T/C (dose: 6.25 mg/kg/injection, schedule: Q01DX009 (ip), vehicle: saline sonified) is 125 % of control.

As for `O=C1CC(=O)C(Br)=C1Br`, the survivor count reads like this: (dose: 1.5 mg/kg/injection, schedule: Q04DX003 (ip), vehicle: saline with Tween-80) 5 of 6; (dose: 3.0 mg/kg/injection, schedule: Q04DX003 (ip), vehicle: saline with Tween-80) 0 of 6.

For `O=S1(=O)c2ccccc2N(c2ccccc2)c2nnc(COc3ccccc3)n21`, where the note is “dose: 200.0 mg/kg/injection, schedule: Q01DX005 (ip), vehicle: saline with Tween-80”, the survivor count is reported as 6 of 6.

As to `Cn1c(NCc2ccccc2)cc(=O)n(C)c1=O`, the survivor count (dose: 62.5 mg/kg/injection, schedule: Q01DX009 (ip), vehicle: saline with Tween-80) was 0 of 6; the survivor count (dose: 125.0 mg/kg/injection, schedule: Q01DX009 (ip), vehicle: saline with Tween-80) is 0 of 6; the survivor count (dose: 250.0 mg/kg/injection, schedule: Q01DX009 (ip), vehicle: saline with Tween-80) is 0 of 6.

With `CC(=O)/C(=C\c1ccc(Cl)cc1)C(=O)CCN(C)C`, the survivor count under setting [3] is on record as 2 of 5.

As to `CCCCCCCCCCCOCC(=O)O`, under setting [1], the survivor count is on record as 3 of 6.

`CCN(CC)Cc1c(C)nc2cc(N(C)C)ccc2c1Cl`: the survivor count reads like this: (dose: 120.0 mg/kg/injection, schedule: Q01DX005 (ip), vehicle: saline with Tween-80) 1 of 6; (dose: 240.0 mg/kg/injection, schedule: Q01DX005 (ip), vehicle: saline with Tween-80) 0 of 5.

As for `CCCCCCCCCCCC(=O)OC1CCC2(C)C(=CCC3C2CCC2(C)C(C(C)/C=C/C(CC)C(C)C)CCC32)C1` (configuration not stated), for the setting “dose: 400.0 mg/kg/injection, schedule: Q04DX003 (ip), vehicle: other”, the survivor count was 5 of 6.

With `CCc1ccc(/C=C/c2ccc(O)c3ncccc23)[n+](C)c1`, the T/C reads like this: under setting [4], 127 % of control; under setting [5], 131 % of control; (dose: 16.0 mg/kg/injection, schedule: Q01DX009 (ip), vehicle: saline) 136 % of control. Moreover, the survivor count is on record as 6 of 6 (dose: 32.0 mg/kg/injection, schedule: Q04DX003 (ip), vehicle: saline with Tween-80); 0 of 6 (dose: 64.0 mg/kg/injection, schedule: Q04DX003 (ip), vehicle: saline with Tween-80); 0 of 6 (dose: 128.0 mg/kg/injection, schedule: Q04DX003 (ip), vehicle: saline with Tween-80).

Consider `Cc1ccc(C2N(CCN3C(=O)CS(=O)(=O)C3c3ccc(C)s3)C(=O)CS2(=O)=O)s1` (configuration not stated), for which, where the note is “dose: 400.0 mg/kg/injection, schedule: Q04DX002 (ip), vehicle: saline with Tween-80”, the survivor count was 6 of 6.

`CN(C)CCNc1ccc(NCCNCCO)c2c1C(=O)c1ccccc1C2=O`: the T/C (dose: 5.0 mg/kg/injection, schedule: Q04DX002 (ip), vehicle: saline) is 144 % of control.

As for `CC(=O)OC1C(O)C(C)OC(OC2C(OC(=O)C3CCC4C(C3)OC3(CC(OC(=O)/C=C/c5ccccc5)C(C)CO3)C43CO3)OC(C)C(O)C2OC(C)=O)C1O` (configuration not stated), the T/C by setting is: (dose: 2.0 mg/kg/injection, schedule: Q01DX005 (ip), vehicle: saline + alcohol) 127 % of control; (dose: 4.0 mg/kg/injection, schedule: Q01DX005 (ip), vehicle: saline + alcohol) 128 % of control; (dose: 4.0 mg/kg/injection, schedule: Q01DX009 (ip), vehicle: saline + alcohol) 129 % of control; under setting [4], 127 % of control; (dose: 8.0 mg/kg/injection, schedule: Q01DX005 (ip), vehicle: saline + alcohol) 149 % of control; (dose: 8.0 mg/kg/injection, schedule: Q01DX009 (ip), vehicle: saline + alcohol) 129 and 132 % of control. The T/C under setting [5] was 137 % of control; the T/C (dose: 16.0 mg/kg/injection, schedule: Q01DX005 (ip), vehicle: saline + alcohol) was 144 % of control; the T/C (dose: 16.0 mg/kg/injection, schedule: Q01DX009 (ip), vehicle: saline + alcohol) was 128 % of control. The survivor count (dose: 32.0 mg/kg/injection, schedule: Q01DX009 (ip), vehicle: saline + alcohol) is 6 of 6.

As to `Oc1ccc(C[n+]2ccccc2)cc1O`, the survivor count is given as 0 of 6 under setting [6], 0 of 6 under setting [7] and 0 of 6 under setting [3].

For `CC/C(=C/C(F)(F)C(F)(F)C(F)(F)F)[N+](=O)[O-]`, under setting [1], the survivor count is given as 0 of 6.

Take `FC(F)(F)c1ccc2c(c1)N(CCCN1CCN(CCCl)CC1)c1ccccc1S2`: the survivor count (dose: 50.0 mg/kg/injection, schedule: Q04DX003 (ip), vehicle: saline) is on record as 6 of 6 and the survivor count (dose: 100.0 mg/kg/injection, schedule: Q04DX003 (ip), vehicle: saline) is listed as 5 of 6.

As for `CCC1COCC1Cc1cncn1C` (configuration not stated), the survivor count under setting [8] is recorded as 3 of 6.

As for `C[C@]12CC[C@H](O)C=C1CC[C@@H]1[C@@H]2CC[C@]2(C)C(c3ccc(=O)oc3)CC[C@]12O` (some centres not stated), the survivor count (dose: 100.0 mg/kg/injection, schedule: Q01DX009 (ip), vehicle: Klucel (hydroxypropylcellulose) (HPC)) is 0 of 6; the survivor count under setting [1] is 0 of 6; the survivor count (dose: 400.0 mg/kg/injection, schedule: Q01DX009 (ip), vehicle: Klucel (hydroxypropylcellulose) (HPC)) is 0 of 6.

Regarding `O/N=C/C(Cl)(Cl)Cl`, the survivor count is 0 of 6 (dose: 50.0 mg/kg/injection, schedule: Q01DX009 (ip), vehicle: saline) and 0 of 6 under setting [2].

In the case of `CN=C(c1ccc(NC(=O)c2ccc(C(=O)Nc3ccc(C(=NC)N(C)C)cc3)c(Cl)c2)cc1)N(C)C`, the survivor count is listed as 0 of 6 (dose: 6.25 mg/kg/injection, schedule: Q01DX005 (ip), vehicle: saline); 0 of 6 (dose: 12.5 mg/kg/injection, schedule: Q01DX005 (ip), vehicle: saline); 0 of 6 under setting [6]; 0 of 6 under setting [7]; 0 of 6 under setting [3].

In the case of `CC(/C=C/c1ccccc1)=N\NC(=S)Nc1ccc(Br)cc1`, the survivor count was 6 of 6 (dose: 200.0 mg/kg/injection, schedule: Q04DX002 (ip), vehicle: Klucel (hydroxypropylcellulose) (HPC)) and 6 of 6 (dose: 400.0 mg/kg/injection, schedule: Q04DX002 (ip), vehicle: Klucel (hydroxypropylcellulose) (HPC)).

Turning to `C=C(CN(C)C)C(=O)c1ccccc1C`, the survivor count (dose: 12.5 mg/kg/injection, schedule: Q01DX005 (ip), vehicle: suspension in saline) is 1 of 6; the survivor count (dose: 25.0 mg/kg/injection, schedule: Q01DX005 (ip), vehicle: suspension in saline) is listed as 0 of 6; the survivor count (dose: 60.0 mg/kg/injection, schedule: Q01DX005 (ip), vehicle: saline) is 0 of 6; the survivor count (dose: 120.0 mg/kg/injection, schedule: Q01DX005 (ip), vehicle: saline) is listed as 0 of 6; the survivor count under setting [8] is given as 0 of 6.
